The values that follow come from the supplement of paper PMC5949888.

Most values lie at the floor of the assay. Slopes are relative: functional sequences can read slightly below zero.

The subject of the data set is Saccharomyces cerevisiae PS128 hsf1 delta, HSF1(1-493) fusion. Kind of data set: growth estimate (transactivation domain function in HSF1 fusion, heat-shock survival) (a.u. (slope of normalised read count over time)); higher = stronger growth at 37°C, i.e. more transactivation activity. As to conditions: library: random library. The procedure: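 Random 60-nt DNA library encoding peptides of up to 20 aa, fused to the C-terminus of yeast HSF1 residues 1-493 (C-terminal TAD deleted) and expressed from the native HSF1 promoter on a CEN plasmid in hsf1-deleted S. cerevisiae PS128. Cells were selected at 37°C on -trp 5-FOA plates for 0, 2, 4, 6 and 8 days and amplicons were sequenced. Growth estimate is the slope of a robust linear fit of total-sum-normalised read counts (normalised to the first time point) over time, using at least 2 replicates. Sequences are classed functional (TAD activity) above a threshold of -0.13, set from stop-codon control sequences.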
As for NNIRWEIHKIHQPTSNNLAP, the growth estimate was -0.229.
For ILRSNGDPSHVRHII, the growth estimate was < -0.25.
With IDMGGI the figure was < -0.25.
For ALGIRTAREA, the growth estimate was < -0.25.
With KVAIQLCISGDRKYYRVADH the figure was < -0.25.
Next, VLGPKVIWLGSTLFIREDMS: < -0.25; GVVGSRERRITCGLCSVLI: < -0.25; GRD: < -0.25.
As to CQHRCTWGLPSIPVSAV, the growth estimate is < -0.25.
Take KPRSYT: the growth estimate was < -0.25.
In the case of CWVGSSVPECL, the growth estimate is < -0.25.
Next, WPLYLASQSVNLY: -0.219; SLNGPCLVLSRGKNSIVTRH: < -0.25; TFTRGGPLADYGRS: < -0.25.
With LEVVNWGAG, the growth estimate was < -0.25.
With QLGHEALIPAGLQ the figure was < -0.25.
With YWAYMGGRAVKGFVLRTASL, the growth estimate was < -0.25.
With EPVGPSGNIGSWARLMS the figure was < -0.25; with PKGYQPINNTAAPLARLD, < -0.25.
With KYALLGNS the figure was < -0.25; with YLSN, < -0.25.
LQGKAMRIRVKVGRLLEAFV: the growth estimate is < -0.25.
With PTSEQTC the figure was < -0.25.
Next, CRQYSPG: < -0.25.
On to PPGHGRSDTNVREQIDERRR, for which the growth estimate is < -0.25.
Take PGSATSVRGILSHV: the growth estimate was -0.214.
On to WSGMG, for which the growth estimate was < -0.25.
Turning to HDGGLIYVAVAGSDQINSNL, the growth estimate is < -0.25.
As for PVRYSGASSGAIPRKAWKRL, the growth estimate is < -0.25.
Turning to YSEC, the growth estimate is < -0.25.
With VPELKGFR the figure was < -0.25.
As to GLNTYNAPS, the growth estimate is < -0.25.
Next, NSRFSRAAHSYRAQIMLCGE: < -0.25.
For GRSSSGSTT, the growth estimate was < -0.25.
Consider SHRGE, for which the growth estimate was < -0.25.
With LKVG the figure was < -0.25.
With FALEFIFTDFGDLSHLERNE the figure was < -0.25; with SADCSLYQGLGAIRKLIRTG, < -0.25; with YQTGDFFYATRALLFPLGVY, < -0.25.
For TRFLTSNMHSSVGLFACLRS, the growth estimate is < -0.25.
As to PRKLCE, the growth estimate was < -0.25.
As to RAVVI, the growth estimate is < -0.25.
As to LAEPLGIECEPSCSIVKTIH, the growth estimate is -0.198.
As for VGIPTARSCHGIEWNKTGAA, the growth estimate is < -0.25.
For the substance GPSIRDCRCKL, the growth estimate was < -0.25.
With ISQTISGSVL the figure was < -0.25; with APAWFVRSEFAASKSLAFRV, < -0.25.
Turning to TSLSIGRSFETRLCRRHVAA, the growth estimate is < -0.25.
Next, KVCSCS: < -0.25; YNCL: < -0.25; EEPMHSNPAVIKSRGDVRAS: < -0.25.
For QYWLRNCIPTPSYVAVSEGR, the growth estimate was < -0.25.
Next, CGDEVLQPGGRPASCVIEVR: < -0.25.
Next, SVGRRKNIL: < -0.25; ILA: < -0.25; MDGGGTLYTR: < -0.25.
With RLVAVREPAFARHRAHVTRV, the growth estimate is < -0.25.
For the substance GISASRPNYVASKMRITCGC, the growth estimate was < -0.25.
Next, TRLGGFSMESVRMTQATGAH: < -0.25; SRVRWGSVLLLSCT: < -0.25.
With LLDYCLSGASRSFHK the figure was < -0.25.
Next, YLHYRWPCKVDTMVVNAG: < -0.25; SAGSGAYGTVGSQGSYILTV: < -0.25; IPNKALITTTKK: < -0.25.
With LGVSKTLGLYILYWDQ, the growth estimate was < -0.25.
Next, VRLTGELADVPVTPVRIENR: < -0.25; ARATTCRVANW: < -0.25; RHHQGSYSGILVFGSRLQGE: < -0.25.
PWVQWSGDPQSSLGKNFLTG: the growth estimate was < -0.25.
In the case of TPLLAGLRR, the growth estimate was < -0.25.
Take KRMSIYSSRRLSPIGLS: the growth estimate is < -0.25.
With LQMCD the figure was < -0.25; with KQHVEGRSVKAD, < -0.25.
Take RRRKLTVYSQ: the growth estimate is < -0.25.
With PNLVPLLLPTRIAVHFTSSA, the growth estimate was < -0.25.
With LLKGVSCAATCLCGGPFRHR the figure was < -0.25.
As to AKKSGAGLCVRQEPHYVPFS, the growth estimate was -0.212.
Take DLSLTYR: the growth estimate is < -0.25.
In the case of AIETLQVYTTALCELKPQTI, the growth estimate was < -0.25.
Next, MMSV: < -0.25; KDRQNQRLTLGGFRSTWLDW: < -0.25.
With VAWRRARRRKLEISSYMSAI the figure was < -0.25; with RSVHVLGPRRIQRPAPSRRC, < -0.25; with SLVQLDAVDQIEHFHPCVCT, -0.236.
In the case of GDLMEARHTW, the growth estimate is < -0.25.
With STG, the growth estimate was < -0.25.
Consider TVRKSRTRVDTSIGQLITSR, for which the growth estimate was < -0.25.
Consider VRRG, for which the growth estimate was < -0.25.
As for ATAIQIPKLRRHADGSQTTS, the growth estimate was < -0.25.
Consider LIGDTRDEVVSALTSIVDGS, for which the growth estimate was < -0.25.
Regarding GSLTFDMSKYGGRPVGALNP, the growth estimate is < -0.25.
With CLCPRDHQNFI, the growth estimate was < -0.25.
Next, RNSKRGPVRPEHLLH: < -0.25.
In the case of IQNASITLLLY, the growth estimate is < -0.25.
Next, RCGCRSESRRQRGALLP: < -0.25.
With IQRR the figure was < -0.25; with LWRIGLGSSGLARRRKLRLN, -0.055; with AIGSGA, < -0.25.
As to PAFPWYSLRLAGFLYAALPS, the growth estimate was < -0.25.
Turning to KPSRFLVRVWLSTLVYRFGT, the growth estimate is < -0.25.
With VRDAFSRCLRTLAPVSRW the figure was < -0.25; with DVIRPFLRYFRRGEARSTPC, < -0.25; with LRPKFITPSLKGVLTLCLRG, < -0.25.
RNDVED: the growth estimate is < -0.25.
As for SRYQCSLGSYNFRKGAWVFP, the growth estimate is < -0.25.
Regarding ADSIRSESRSPLG, the growth estimate was < -0.25.
As for SKHG, the growth estimate was < -0.25.
HQCPRTRHFSNEAHPSPLCG: the growth estimate is < -0.25.
Regarding TNAPSLACYGSSHSTIRSSG, the growth estimate was < -0.25.
Next, LTLLVIHEGIKPGFASLVRF: < -0.25; SLSRQWRG: < -0.25; VLKTRQTMRIDNSFHCFPYS: < -0.25.
With ISSQN the figure was < -0.25.
For the substance APRTNFERNRPLH, the growth estimate is < -0.25.
Turning to RPPGRVCSEGEGC, the growth estimate is < -0.25.
With LDAYRWATLFVLGRTISKLV the figure was < -0.25.
